Patent publication US8865656B2 (Polyphor AG, priority 2009, dated 2014)
Starred links: 1 amine or outer side, 2 acyl side, 3 side chain; linkers in the order of their positions; H or OH if unused. Positions of bridges follow the written chain, without caps; N, C: chain ends. Non-standard residues stand in square brackets, D forms with d. No end group written: not given here. Oic = O=C(O)[C@@H]1C[C@@H]2CCCC[C@@H]2N1; X1 = O=C(C(O)CCN[*:1])[*:2]; Dab = NCC[C@H](N)C(=O)O

Assay: general procedure: Fmoc solid-phase peptide synthesis; Fmoc-ProO-chlorotrityl resin, Fmoc-OicO-chlorotrityl resin, Fmoc-AlaO-chlorotrityl resin
Conditions: whole synthesis

## Tyr-His-Ala-Cys-Ser-Ala-^DTyr-Dab-Arg-Tyr-Cys-Tyr-Gln-Lys-NMe^DAla-Pro
  final purity (method not given): 95%

## cyclo(YHAC[X1]A[dP][Dab]RYCYQK[dP]P) (disulfide 4-11; SMILES C[C@@H]1NC(=O)[C@H](Cc2c[nH]cn2)NC(=O)[C@H](Cc2ccc(O)cc2)NC(=O)[C@@H]2CCCN2C(=O)[C@H]2CCCN2C(=O)[C@H](CCCCN)NC(=O)[C@H](CCC(N)=O)NC(=O)[C@H](Cc2ccc(O)cc2)NC(=O)[C@@H]2CSSC[C@H](NC1=O)C(=O)NCCC(O)C(=O)N[C@@H](C)C(=O)N1CCC[C@@H]1C(=O)N[C@@H](CCN)C(=O)N[C@@H](CCCNC(=N)N)C(=O)N[C@@H](Cc1ccc(O)cc1)C(=O)N2)
  final purity (method not given): 95%

## Tyr-His-Ala-Cys-Ser-Ala-^DPro-Dab-Arg-Tyr-Cys-Tyr-Gln-Lys-(ABu)G-Pro
  final purity (method not given): 95%

## Tyr-His-Ala-Cys-Ser-Ala-^DTrp-Dab-Arg-Tyr-Cys-Tyr-Gln-Lys-^DIle-Pro
  final purity (method not given): 95%

## Tyr-His-Ala-Cys-Ser-Ala-^DPro-Dab-Arg-Tyr-Cys-Tyr-Gln-Lys-NMe^DIle-Pro
  final purity (method not given): 95%

## Tyr-His-Ala-Cys-Ser-Ala-^DPro-Dab-Arg-Tyr-Cys-Tyr-Gln-Lys-^DCha-Pro
  final purity (method not given): 95%

## Tyr-His-Ala-Cys-β^3S-Ala-^DPro-Dab-Arg-Tyr-Cys-Tyr-Gln-Lys-^DPro-Pro
  final purity (method not given): 95%

## Tyr-His-Ala-Cys-Ser-Ala-^DPro-Dab-Arg-Tyr-Cys-Tyr-Gln-Lys-^D4Pal-Pro
  final purity (method not given): 95%

## Tyr-His-Ala-Cys-Ser-Ala-^DPro-Dab-Arg-Tyr-Cys-Tyr-Gln-Lys-NMe^DTyr-Pro
  final purity (method not given): 95%

## γ^4Y-His-Ala-Cys-Ser-Ala-^DPro-Dab-Arg-Tyr-Cys-Tyr-Gln-Lys-^DPro-Pro
  final purity (method not given): 95%

## Tyr-His-Ala-Cys-Ser-Ala-^DPro-Dab-Arg-Tyr-Cys-Tyr-Gln-Lys-NMe^DLys-Pro
  final purity (method not given): 88%

## Tyr-His-Ala-Cys-Ser-Ala-^DPro-Dab-Arg-Tyr-Cys-Tyr-Gln-Lys-^DHis(Bzl)-Pro
  final purity (method not given): 95%

## YHACSA[dP][Dab]RYCYQK[dP][Oic] (cysteine pairing not given here)
  final purity (method not given): 95%

## Tyr-His-Ala-Cys-^DalloT-Ala-^DPro-Dab-Arg-Tyr-Cys-Tyr-Gln-Lys-^DPro-Pro
  final purity (method not given): 95%
